Measurements published in paper doi:10.1101/2023.07.28.550789.
Results are given in words; binding and its absence hold for the method and conditions named. Binding seen in cells or lysates may run through a third protein. Tags and fused reporters may be left off the sequences shown.

Molecular target: T1, Strep-RnpM (Strep-tagged RnpM, plasmid pGP3650) (B. subtilis 168) (UniProt P32728)
T1 sequence: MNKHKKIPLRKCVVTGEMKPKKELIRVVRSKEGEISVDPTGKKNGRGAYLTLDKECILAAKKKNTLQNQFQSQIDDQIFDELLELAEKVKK
Assay: pull-down

B1: His-RnpA (recombinant His-tagged RnpA from B. subtilis, plasmid pQE30-His-RnpA) (protein, UniProt P25814 2-116)
chain: KKRNRLKKNEDFQKVFKHGTSVANRQFVLYTLDQPENDELRVGLSVSKKIGNAVMRNRIKRLIRQAFLEEKERLKEKDYIIIARKPASQLTYEETKKSLQHLFRKSSLYKKSSSK
**Q.** With B1 as the binder, how does the binding read?
**A.** no binding
